Results from patent US20140038203A1, “METHODS FOR DETECTING OR PREDICTING KIDNEY DISEASE” (MUSC FOUNDATION FOR RESEARCH DEVELOPMENT, priority 2012, published 2014).

B1: Afamin (protein, UniProt P43652 22-599, looked up)
Afamin: LPTQPRDIENFNSTQKFIEDNIEYITIIAFAQYVQEATFEEMEKLVKDMVEYKDRCMADKTLPECSKLPNNVLQEKICAMEGLPQKHNFSHCCSKVDAQRRLCFFYNKKSDVGFLPPFPTLDPEEKCQAYESNRESLLNHFLYEVARRNPFVFAPTLLTVAVHFEEVAKSCCEEQNKVNCLQTRAIPVTQYLKAFSSYQKHVCGALLKFGTKVVHFIYIAILSQKFPKIEFKELISLVEDVSSNYDGCCEGDVVQCIRDTSKVMNHICSKQDSISSKIKECCEKKIPERGQCIINSNKDDRPKDLSLREGKFTDSENVCQERDADPDTFFAKFTFEYSRRHPDLSIPELLRIVQIYKDLLRNCCNTENPPGCYRYAEDKFNETTEKSLKMVQQECKHFQNLGKDGLKYHYLIRLTKIAPQLSTEELVSLGEKMVTAFTTCCTLSEEFACVDNLADLVFGELCGVNENRTINPAVDHCCKTNFAFRRPCFESLKADKTYVPPPFSQDLFTFHADMCQSQNEELQRKTDRFLVNLVKLKHELTDEELQSLFTNFANVVDKCCKAESPEVCFNEESPKIGN
B2: Serine protease inhibitor Kazal-type 5 (protein, UniProt Q9NQ38 23-1064, looked up)
Serine protease inhibitor …: KNEDQEMCHEFQAFMKNGKLFCPQDKKFFQSLDGIMFINKCATCKMILEKEAKSQKRARHLARAPKATAPTELNCDDFKKGERDGDFICPDYYEAVCGTDGKTYDNRCALCAENAKTGSQIGVKSEGECKSSNPEQDVCSAFRPFVRDGRLGCTRENDPVLGPDGKTHGNKCAMCAELFLKEAENAKREGETRIRRNAEKDFCKEYEKQVRNGRLFCTRESDPVRGPDGRMHGNKCALCAEIFKQRFSEENSKTDQNLGKAEEKTKVKREIVKLCSQYQNQAKNGILFCTRENDPIRGPDGKMHGNLCSMCQAYFQAENEEKKKAEARARNKRESGKATSYAELCSEYRKLVRNGKLACTRENDPIQGPDGKVHGNTCSMCEVFFQAEEEEKKKKEGKSRNKRQSKSTASFEELCSEYRKSRKNGRLFCTRENDPIQGPDGKMHGNTCSMCEAFFQQEERARAKAKREAAKEICSEFRDQVRNGTLICTREHNPVRGPDGKMHGNKCAMCASVFKLEEEEKKNDKEEKGKVEAEKVKREAVQELCSEYRHYVRNGRLPCTRENDPIEGLDGKIHGNTCSMCEAFFQQEAKEKERAEPRAKVKREAEKETCDEFRRLLQNGKLFCTRENDPVRGPDGKTHGNKCAMCKAVFQKENEERKRKEEEDQRNAAGHGSSGGGGGNTQDECAEYREQMKNGRLSCTRESDPVRDADGKSYNNQCTMCKAKLEREAERKNEYSRSRSNGTGSESGKDTCDEFRSQMKNGKLICTRESDPVRGPDGKTHGNKCTMCKEKLEREAAEKKKKEDEDRSNTGERSNTGERSNDKEDLCREFRSMQRNGKLICTRENNPVRGPYGKMHINKCAMCQSIFDREANERKKKDEEKSSSKPSNNAKDECSEFRNYIRNNELICPRENDPVHGADGKFYTNKCYMCRAVFLTEALERAKLQEKPSHVRASQEEDSPDSFSSLDSEMCKDYRVLPRIGYLCPKDLKPVCGDDGQTYNNPCMLCHENLIRQTNTHIRSTGKCEESSTPGTTAASMPPSDE
B3: Ig gamma-2 chain C region (protein, UniProt P01859 1-395, looked up)
Immunoglobulin heavy constant …: ASTKGPSVFPLAPCSRSTSESTAALGCLVKDYFPEPVTVSWNSGALTSGVHTFPAVLQSSGLYSLSSVVTVPSSNFGTQTYTCNVDHKPSNTKVDKTVERKCCVECPPCPAPPVAGPSVFLFPPKPKDTLMISRTPEVTCVVVDVSHEDPEVQFNWYVDGVEVHNAKTKPREEQFNSTFRVVSVLTVVHQDWLNGKEYKCKVSNKGLPAPIEKTISKTKGQPREPQVYTLPPSREEMTKNQVSLTCLVKGFYPSDISVEWESNGQPENNYKTTPPMLDSDGSFFLYSKLTVDKSRWQQGNVFSCSVMHEALHNHYTQKSLSLSPELQLEESCAEAQDGELDGLWTTITIFITLFLLSVCYSATITFFKVKWIFSSVVDLKQTIVPDYRNMIRQGA
B4: N(G),N(G)-dimethylarginine dimethylaminohydrolase 2 (protein, UniProt O95865 1-285, looked up)
Putative hydrolase DDAH2: MGTPGEGLGRCSHALIRGVPESLASGEGAGAGLPALDLAKAQREHGVLGGKLRQRLGLQLLELPPEESLPLGPLLGDTAVIQGDTALITRPWSPARRPEVDGVRKALQDLGLRIVEIGDENATLDGTDVLFTGREFFVGLSKWTNHRGAEIVADTFRDFAVSTVPVSGPSHLRGLCGMGGPRTVVAGSSDAAQKAVRAMAVLTDHPYASLTLPDDAAADCLFLRPGLPGVPPFLLHRGGGDLPNSQEALQKLSDVTLVPVSCSELEKAGAGLSSLCLVLSTRPHS
B5: Phosphatidylethanolamine-binding protein 4 (protein, UniProt Q96S96 23-227, looked up)
Phosphatidylethanolamine-bindi …: DEDENSPCAHEALLDEDTLFCQGLEVFYPELGNIGCKVVPDCNNYRQKITSWMEPIVKFPGAVDGATYILVMVDPDAPSRAEPRQRFWRHWLVTDIKGADLKKGKIQGQELSAYQAPSPPAHSGFHRYQFFVYLQEGKVISLLPKENKTRGSWKMDRFLNRFHLGEPEASTQFMTQNYQDSPTLQAPRERASEPKHKNQAEIAAC
B6: DNA repair protein REV1 (protein, UniProt Q9UBZ9 1-1251, looked up)
DNA repair protein REV1: MRRGGWRKRAENDGWETWGGYMAAKVQKLEEQFRSDAAMQKDGTSSTIFSGVAIYVNGYTDPSAEELRKLMMLHGGQYHVYYSRSKTTHIIATNLPNAKIKELKGEKVIRPEWIVESIKAGRLLSYIPYQLYTKQSSVQKGLSFNPVCRPEDPLPGPSNIAKQLNNRVNHIVKKIETENEVKVNGMNSWNEEDENNDFSFVDLEQTSPGRKQNGIPHPRGSTAIFNGHTPSSNGALKTQDCLVPMVNSVASRLSPAFSQEEDKAEKSSTDFRDCTLQQLQQSTRNTDALRNPHRTNSFSLSPLHSNTKINGAHHSTVQGPSSTKSTSSVSTFSKAAPSVPSKPSDCNFISNFYSHSRLHHISMWKCELTEFVNTLQRQSNGIFPGREKLKKMKTGRSALVVTDTGDMSVLNSPRHQSCIMHVDMDCFFVSVGIRNRPDLKGKPVAVTSNRGTGRAPLRPGANPQLEWQYYQNKILKGKAADIPDSSLWENPDSAQANGIDSVLSRAEIASCSYEARQLGIKNGMFFGHAKQLCPNLQAVPYDFHAYKEVAQTLYETLASYTHNIEAVSCDEALVDITEILAETKLTPDEFANAVRMEIKDQTKCAASVGIGSNILLARMATRKAKPDGQYHLKPEEVDDFIRGQLVTNLPGVGHSMESKLASLGIKTCGDLQYMTMAKLQKEFGPKTGQMLYRFCRGLDDRPVRTEKERKSVSAEINYGIRFTQPKEAEAFLLSLSEEIQRRLEATGMKGKRLTLKIMVRKPGAPVETAKFGGHGICDNIARTVTLDQATDNAKIIGKAMLNMFHTMKLNISDMRGVGIHVNQLVPTNLNPSTCPSRPSVQSSHFPSGSYSVRDVFQVQKAKKSTEEEHKEVFRAAVDLEISSASRTCTFLPPFPAHLPTSPDTNKAESSGKWNGLHTPVSVQSRLNLSIEVPSPSQLDQSVLEALPPDLREQVEQVCAVQQAESHGDKKKEPVNGCNTGILPQPVGTVLLQIPEPQESNSDAGINLIALPAFSQVDPEVFAALPAELQRELKAAYDQRQRQGENSTHQQSASASVPKNPLLHLKAAVKEKKRNKKKKTIGSPKRIQSPLNNKLLNSPAKTLPGACGSPQKLIDGFLKHEGPPAEKPLEELSASTSGVPGLSSLQSDPAGCVRPPAPNLAGAVEFNDVKTLLREWITTISDPMEEDILQVVKYCTDLIEEKDLEKLDLVIKYMKRLMQQSVESVWNMAFDFILDNVQVVLQQTYGSTLKVT
B7: Vesicular integral-membrane protein VIP36 (protein, UniProt Q12907 45-356, looked up)
Vesicular integral-membrane …: DITDGNSEHLKREHSLIKPYQGVGSSSMPLWDFQGSTMLTSQYVRLTPDERSKEGSIWNHQPCFLKDWEMHVHFKVHGTGKKNLHGDGIALWYTRDRLVPGPVFGSKDNFHGLAIFLDTYPNDETTERVFPYISVMVNNGSLSYDHSKDGRWTELAGCTADFRNRDHDTFLAVRYSRGRLTVMTDLEDKNEWKNCIDITGVRLPTGYYFGASAGTGDLSDNHDIISMKLFQLMVEHTPDEESIDWTKIEPSVNFLKSPKDNVDDPTGNFRSGPLTGWRVFLLLLCALLGIVVCAVVGAVVFQKRQERNKRFY
B8: Alpha-1-antichymotrypsin (protein, UniProt P01011 24-423, looked up)
Alpha-1-antichymotrypsin: HPNSPLDEENLTQENQDRGTHVDLGLASANVDFAFSLYKQLVLKAPDKNVIFSPLSISTALAFLSLGAHNTTLTEILKGLKFNLTETSEAEIHQSFQHLLRTLNQSSDELQLSMGNAMFVKEQLSLLDRFTEDAKRLYGSEAFATDFQDSAAAKKLINDYVKNGTRGKITDLIKDLDSQTMMVLVNYIFFKAKWEMPFDPQDTHQSRFYLSKKKWVMVPMMSLHHLTIPYFRDEELSCTVVELKYTGNASALFILPDQDKMEEVEAMLLPETLKRWRDSLEFREIGELYLPKFSISRDYNLNDILLQLGIEEAFTSKADLSGITGARNLAVSQVVHKAVLDVFEEGTEASAATAVKITLLSALVETRTIVRFNRPFLMIIVPTDTQNIFFMSKVTNPKQA
B9: N-acetylmuramoyl-L-alanine amidase (protein, UniProt Q96PD5 22-576, looked up)
N-acetylmuramoyl-L-alanine …: SLPLLMDSVIQALAELEQKVPAAKTRHTASAWLMSAPNSGPHNRLYHFLLGAWSLNATELDPCPLSPELLGLTKEVARHDVREGKEYGVVLAPDGSTVAVEPLLAGLEAGLQGRRVINLPLDSMAAPWETGDTFPDVVAIAPDVRATSSPGLRDGSPDVTTADIGANTPDATKGCPDVQASLPDAKAKSPPTMVDSLLAVTLAGNLGLTFLRGSQTQSHPDLGTEGCWDQLSAPRTFTLLDPKASLLTMAFLNGALDGVILGDYLSRTPEPRPSLSHLLSQYYGAGVARDPGFRSNFRRQNGAALTSASILAQQVWGTLVLLQRLEPVHLQLQCMSQEQLAQVAANATKEFTEAFLGCPAIHPRCRWGAAPYRGRPKLLQLPLGFLYVHHTYVPAPPCTDFTRCAANMRSMQRYHQDTQGWGDIGYSFVVGSDGYVYEGRGWHWVGAHTLGHNSRGFGVAIVGNYTAALPTEAALRTVRDTLPSCAVRAGLLRPDYALLGHRQLVRTDCPGDALFDLLRTWPHFTATVKPRPARSVSKRSRREPPPRTLPATDLQ
B10: Abhydrolase domain-containing protein 14B (protein, UniProt Q96IU4 2-210, looked up)
Putative protein-lysine …: AASVEQREGTIQVQGQALFFREALPGSGQARFSVLLLHGIRFSSETWQNLGTLHRLAQAGYRAVAIDLPGLGHSKEAAAPAPIGELAPGSFLAAVVDALELGPPVVISPSLSGMYSLPFLTAPGSQLPGFVPVAPICTDKINAANYASVKTPALIVYGDQDPMGQTSFEHLKQLPNHRVLIMKGAGHPCYLDKPEEWHTGLLDFLQGLQ
B11: Uteroglobin (protein, UniProt P11684 22-91, looked up)
Uteroglobin: EICPSFQRVIETLLMDTPSSYEAAMELFSPDQDMREAGAQLKKLVDTLPQKPRESIIKLMEKIAQSSLCN

Experiment: RRT study: LC-MS/MS urinary proteomics, AKI after cardiac surgery, RRT vs No RRT
Set-up: species or system human
Details: direction of urinary abundance, patients who did vs did not require RRT/dialysis

Molecule | Up or Down
B1 | Up
B2 | Up
B3 | Up
B4 | Up
B5 | Up
B6 | Up
B7 | Up
B8 | Up
B9 | Up
B10 | Up
B11 | Up

Same assay, conditions: patients who did vs did not require RRT/dialysis; read with the Up or Down column

Molecule | Mean Fold Change
B1 | 15.38
B2 | 7.462
B3 | 3.662
B7 | 1.55
B8 | 4.662
B9 | 4.875
B10 | 5.213
B11 | 4.711
